Laboratory results reported in the supplement of paper PMC10338343.
± gives the standard deviation. The entries are a selection whose mix differs from that of the whole data set. Many entries were measured with a wide error.

What follows are sequences tested on MIWI (PIWIL1) piRISC loaded with piRNA #2 (30 nt) (assay: pre-steady-state target cleavage rate (min^-1); MIWI and MILI are mouse PIWI proteins and EfPiwi is from a freshwater sponge; tags in brackets are library labels; higher = faster piRNA-guided slicing of the target). Conditions: guide: piRNA #2 5'p-UUAGGUAACCCAGUAGAUCCAGAGGAAUUC; auxiliary factor: 500 nM mouse GTSF1.
Experimental: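 Cleave-'n-Seq: a library of target RNAs (target site embedded in constant flanks, ACAGCATTCCGCGTTAGTGATATCCG... 5' flank; DNA-blocked outside the site) at 0.1 nM was incubated with 1 nM active mouse MILI or MIWI piRISC (synthetic 5'-monophosphorylated piRNA guide) with or without 500 nM mouse GTSF1 at 33 °C for 1 min to 16 h. Uncleaved targets were sequenced and normalised to non-target controls, and the pooled three trials were fitted to a burst-and-steady-state model to give the pre-steady-state cleavage rate (min^-1; k3 is constrained to at most 1e-4). Sequence is the target site only; target names encode pairing extent (gX:gY) and contiguous / 1-mismatch / 2-mismatch / bulge geometry. Fits with R² ≤ 0 are excluded.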

Sequence | pre-steady-state target cleavage rate
CUUAAGGACUGGAUCUAGUGGCUUACCUAA | 0.00416 ± 0.0083
CUUAAGGAGUGGAUCUACUGGAGUUACCUAA | 0.00147 ± 0.01
CUUAAGGAGACCUAGAUGACGGGUUACCUAA | 0.000323 ± 0.018
CUUAAGGAGAGGAUCUACGGGUUACCUAA | 0.000263 ± 0.023
CUUAAGGAGACCAUCUACAUGGGUUACCUAA | 0.00131 ± 0.0065
CUUAAGGAGACCUAGAUCUGGGUUAACCUAA | 0.000105 ± 0.025
CUUAAGGACUGGAACUACUGGGUUUCCUAA | 0.00419 ± 0.011
CUUAAGGAGACCUACUACUGCGUAACCUAA | 0.000195 ± 0.02
GAAUUCCUCUGGAUCUACUGAGGUUACCUAA | 0.00556 ± 0.0037
CUUAAGGAGACCUAGAUCUGGGUUCCCUAA | 0.000624 ± 0.012
CUUAAGGAGACCUAGUACUGGGUUCCCUAA | 0.000141 ± 0.017
CUUAACCUCUGGAUCUAGUCGGUUACCUAA | 0.0063 ± 0.0049
CUAUUCCUCUGGAUCUACUGCGGUUACCUAA | 0.00224 ± 0.0037
CUUAAGGAGACCAUCUCCUGGGUUACCUAA | 0.00259 ± 0.0065
CUUAAGGAGACCUAGAUCUGAGUUACCUAA | 0.000167 ± 0.033
CUUAAGGAGUGGAUCUACUGGGUAUGCUAA | 0.000171 ± 0.034
CUUAAGGACUGGAUGUACUGGGUUACCAAA | 0.0328 ± 0.037
CUUAAGGAGACCUUUACUGGGUUACCUAA | 0.0022 ± 0.0056
CUAUUCCAUCUGGAUCUACUGGGUUACCUAA | 0.537 ± 0.053
CUUAAGGAGACGAUCUACUGGGUUAGCCUAA | 0.00216 ± 0.0051
CUUAAGGAGACCUAGAUCUGGGUUACCUGAA | 0.000513 ± 0.015
CUUAAGGUCUGGAUCUACUCGCUUACCUAA | 0.000866 ± 0.02
CAAUUCCUCUGGAUCUACUCCCUUACCUAA | 0.0015 ± 0.0077
CUUAAGGAGACCAUCAACUGGGUUACCUAA | 0.00135 ± 0.0043

Sequence | pre-steady-state target cleavage rate
CUUAAGGACUGGUACUACUGGGUUACCUAA | 0.00399 ± 0.015
CUUAAGGAGACCUAGAAGUGGGUUACGUAA | 0.000324 ± 0.019
CUUUUCCUCUGGAUCUACUCGGGUUACCUAA | 0.0024 ± 0.0059
CUUUUCCUCUCGUUCUACUGGGUUACCUAA | 0.519 ± 0.041
CUUAAGGAGAGGAUCUACUGGCUUUCCUAA | 0.000442 ± 0.016
CUUAAGGAGACGAUCUUCUGGGUUACCUAA | 0.00141 ± 0.0039
CUUAAGGAGACCAUCUACUGCGUUACCUUA | 0.000619 ± 0.0075
CUUAAGGAGUGGAACUACUGGCUUACCUAA | 0.00115 ± 0.015
CUUAAGGAGAGGUUCUAGUGGGUUACCUAA | 0.000726 ± 0.01
CUUAAGGAGACCUACUACUGGGUUACUCUAA | 0.000227 ± 0.031
CUUAAGGAGACCUAGAUCUGGGUUACCCAA | 0.000425 ± 0.016
CUUAAGGAGACCUAGAUGACGUUUACCUAA | 0.000151 ± 0.035
CUUAAGGAGACGUACUACUGGGUUACCUAA | 0.000914 ± 0.0065
CUUAAGGAGACCAUCUACUGGGUUACCUGA | 0.00218 ± 0.0043
CUUAAGGAGACCAUCUACUGUGGUUACCUAA | 0.00118 ± 0.0053
CUUAAGGAGAGGAUCUACGGGGUUACCUAA | 0.00226 ± 0.006
CUAUUCCUCUGCAUCUACUGGGUUACCUAA | 0.463 ± 0.04
CUUAAGGAGACCAACUACUGCGUUACCUAA | 0.00209 ± 0.006
CUUAAGGAGACCUACUACUGCGUUACCUUA | 0.000573 ± 0.013
CUUAAGGAGUGGAACUACUGGGUUACCUUA | 0.00839 ± 0.0089
CUUAAGGAGACCUACUACUGGGUUACUUAA | 0.00124 ± 0.0049
GAUUUCCUCUGGAUCUACUGGGUUACCUAA | 0.183 ± 0.042
CUAAUCCUCUGGUUCUACUGGGUUACCUAA | 0.755 ± 0.048
CUUAAGGAGACCUAGAUCUGCGUUACGUAA | 0.000933 ± 0.0096

A run of entries of the results above:
Sequence | pre-steady-state target cleavage rate
CUUAAGGAGACGAUCUUCUGGGUUACCUAA | 0.00141 ± 0.0039
CUUAAGGAGACCAUCUACUGCGUUACCUUA | 0.000619 ± 0.0075
CUUAAGGAGUGGAACUACUGGCUUACCUAA | 0.00115 ± 0.015
CUUAAGGAGAGGUUCUAGUGGGUUACCUAA | 0.000726 ± 0.01
CUUAAGGAGACCUACUACUGGGUUACUCUAA | 0.000227 ± 0.031
CUUAAGGAGACCUAGAUCUGGGUUACCCAA | 0.000425 ± 0.016
CUUAAGGAGACCUAGAUGACGUUUACCUAA | 0.000151 ± 0.035
CUUAAGGAGACGUACUACUGGGUUACCUAA | 0.000914 ± 0.0065
CUUAAGGAGACCAUCUACUGGGUUACCUGA | 0.00218 ± 0.0043
CUUAAGGAGACCAUCUACUGUGGUUACCUAA | 0.00118 ± 0.0053
CUUAAGGAGAGGAUCUACGGGGUUACCUAA | 0.00226 ± 0.006
CUAUUCCUCUGCAUCUACUGGGUUACCUAA | 0.463 ± 0.04
CUUAAGGAGACCAACUACUGCGUUACCUAA | 0.00209 ± 0.006
CUUAAGGAGACCUACUACUGCGUUACCUUA | 0.000573 ± 0.013
CUUAAGGAGUGGAACUACUGGGUUACCUUA | 0.00839 ± 0.0089
CUUAAGGAGACCUACUACUGGGUUACUUAA | 0.00124 ± 0.0049
GAUUUCCUCUGGAUCUACUGGGUUACCUAA | 0.183 ± 0.042
CUAAUCCUCUGGUUCUACUGGGUUACCUAA | 0.755 ± 0.048

Further entries follow.

Sequence | pre-steady-state target cleavage rate
CUUUUCCUCAGGAUCUACUGGGUUAGCUAA | 0.133 ± 0.041
CUUAAGGAGACCAUCUACUGGGUGACCUAA | 0.000201 ± 0.019
CUUAAGGAGUGGAUCUACUGCGUAACCUAA | 0.00324 ± 0.0064
CUUAAGGAGACCUAGAUCUGGGUUACAUAA | 0.000977 ± 0.0053
CUUAAGGAGACCUUCUACUGGGUUAGCUAA | 0.00152 ± 0.0047
CUUAAGGAGACCAUCUACGGGGUUACCUAA | 0.00271 ± 0.0071
CUUAAGGAGACCUACAUACUGGGUUACCUAA | 0.00105 ± 0.0049
CUUAAGGAGACCAUCAUACUGGGUUACCUAA | 0.00118 ± 0.0046
CUUAAGGAGACCAUCUACUGGAGUUACCUAA | 0.00168 ± 0.0058
CUUAAGGAGACGAUCUACUCCGUUACCUAA | 0.00147 ± 0.0034
CUUAAGGAGACCUAGUCCUGGGUUACCUAA | 0.00101 ± 0.0078
CUUAAGGACAGGAUCUACUGGGUAACCUAA | 0.00951 ± 0.01
CUUAAGGAGACCAUCUACUGGGUUACCGAA | 0.00151 ± 0.0046
CUUAAGGAGAGCAUCUACUGGCUUACCUAA | 0.00122 ± 0.0054
CUUAACCACUGGAUCUACUCGGUUACCUAA | 0.0483 ± 0.01
CUUAAGGACUGGAUCUACUGCGUAACCUAA | 0.00722 ± 0.013
CUUAAGGAGACCUAGUAUUGGGUUACCUAA | 0.000878 ± 0.0075
CUUUUCCUCUCGAUGUACUGGGUUACCUAA | 0.592 ± 0.043
GAAUUCCUCUGGAUCUAGUGGGUUUCCUAA | 0.108 ± 0.019
CUUAAGGAGAGCAACUACUGGGUUACCUAA | 0.00243 ± 0.0036
CUUAAGGAGACGAUCUUCUGGGUUUCCUAA | 0.00202 ± 0.0045
CUUAAGGAGAGGAUCUACUGCGUAACCUAA | 0.000853 ± 0.013
CUUAAGGAGACCUUCUACAGCGUUACCUAA | 0.00566 ± 0.0029
CUUAAGGAGACGAUCUACUGGCUUUCCUAA | 0.00185 ± 0.0041
